From the supplement of paper PMC10849652
The other results are listed elsewhere or left out.

By UniProt entry, the sequences of proteins in these tests, tags left out. Where a name states a change or a piece, a line headed by the entry shows the natural chain unless it says otherwise.
UniProt P28799: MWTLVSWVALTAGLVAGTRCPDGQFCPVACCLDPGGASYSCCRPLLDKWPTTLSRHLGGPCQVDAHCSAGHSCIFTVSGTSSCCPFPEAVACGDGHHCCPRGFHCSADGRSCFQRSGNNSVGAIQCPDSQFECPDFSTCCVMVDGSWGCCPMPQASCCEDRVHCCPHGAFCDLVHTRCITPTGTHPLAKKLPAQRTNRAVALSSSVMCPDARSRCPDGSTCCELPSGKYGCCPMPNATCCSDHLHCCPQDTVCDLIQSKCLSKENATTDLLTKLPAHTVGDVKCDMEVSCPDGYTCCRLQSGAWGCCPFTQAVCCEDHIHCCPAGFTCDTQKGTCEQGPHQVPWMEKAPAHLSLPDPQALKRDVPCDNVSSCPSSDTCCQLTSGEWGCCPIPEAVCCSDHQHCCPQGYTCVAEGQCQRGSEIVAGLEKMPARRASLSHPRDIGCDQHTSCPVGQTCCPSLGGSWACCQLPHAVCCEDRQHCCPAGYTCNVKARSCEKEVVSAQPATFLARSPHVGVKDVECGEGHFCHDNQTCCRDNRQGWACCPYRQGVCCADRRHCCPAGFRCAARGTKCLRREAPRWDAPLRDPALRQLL
UniProt P00367: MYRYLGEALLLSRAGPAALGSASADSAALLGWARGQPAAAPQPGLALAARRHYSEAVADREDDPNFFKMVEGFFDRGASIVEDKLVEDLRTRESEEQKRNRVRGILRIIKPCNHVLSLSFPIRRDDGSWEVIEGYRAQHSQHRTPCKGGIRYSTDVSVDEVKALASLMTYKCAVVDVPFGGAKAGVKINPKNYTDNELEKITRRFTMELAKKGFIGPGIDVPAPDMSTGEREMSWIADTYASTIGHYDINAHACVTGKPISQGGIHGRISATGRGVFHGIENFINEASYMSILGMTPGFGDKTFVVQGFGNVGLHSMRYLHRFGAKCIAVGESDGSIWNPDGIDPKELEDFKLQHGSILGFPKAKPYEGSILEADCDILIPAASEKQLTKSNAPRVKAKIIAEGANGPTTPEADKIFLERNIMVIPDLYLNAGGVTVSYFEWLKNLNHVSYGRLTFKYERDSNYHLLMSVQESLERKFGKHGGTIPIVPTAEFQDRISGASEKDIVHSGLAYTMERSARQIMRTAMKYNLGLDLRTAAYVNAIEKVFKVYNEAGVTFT
UniProt P36969, whole entry, looked up: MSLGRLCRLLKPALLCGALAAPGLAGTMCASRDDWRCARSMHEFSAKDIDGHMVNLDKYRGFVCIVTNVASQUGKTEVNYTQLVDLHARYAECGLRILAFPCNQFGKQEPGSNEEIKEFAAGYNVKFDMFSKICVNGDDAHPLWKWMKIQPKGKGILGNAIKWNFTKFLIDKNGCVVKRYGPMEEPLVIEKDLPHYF
UniProt O95249: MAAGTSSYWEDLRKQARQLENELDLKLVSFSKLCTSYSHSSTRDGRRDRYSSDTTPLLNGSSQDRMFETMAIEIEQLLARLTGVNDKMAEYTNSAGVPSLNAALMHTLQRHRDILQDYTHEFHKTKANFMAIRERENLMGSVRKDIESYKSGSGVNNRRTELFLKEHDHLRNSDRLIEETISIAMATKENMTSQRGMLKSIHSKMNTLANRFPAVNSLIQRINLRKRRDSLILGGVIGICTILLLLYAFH
UniProt P15586: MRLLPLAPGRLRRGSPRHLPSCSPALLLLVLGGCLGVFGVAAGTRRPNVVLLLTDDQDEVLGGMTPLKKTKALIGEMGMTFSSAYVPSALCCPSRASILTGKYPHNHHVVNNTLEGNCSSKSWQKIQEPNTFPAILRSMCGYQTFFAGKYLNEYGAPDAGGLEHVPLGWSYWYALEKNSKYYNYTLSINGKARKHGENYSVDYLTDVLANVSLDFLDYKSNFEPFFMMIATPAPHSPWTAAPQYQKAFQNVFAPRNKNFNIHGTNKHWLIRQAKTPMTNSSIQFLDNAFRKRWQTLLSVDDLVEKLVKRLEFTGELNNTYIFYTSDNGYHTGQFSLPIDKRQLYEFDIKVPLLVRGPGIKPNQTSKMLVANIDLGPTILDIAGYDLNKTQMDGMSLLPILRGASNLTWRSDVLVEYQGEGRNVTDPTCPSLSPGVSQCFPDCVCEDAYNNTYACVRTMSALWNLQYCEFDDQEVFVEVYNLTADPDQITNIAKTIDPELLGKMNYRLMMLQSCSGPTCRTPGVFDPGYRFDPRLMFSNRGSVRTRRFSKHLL
UniProt B7ZAQ6: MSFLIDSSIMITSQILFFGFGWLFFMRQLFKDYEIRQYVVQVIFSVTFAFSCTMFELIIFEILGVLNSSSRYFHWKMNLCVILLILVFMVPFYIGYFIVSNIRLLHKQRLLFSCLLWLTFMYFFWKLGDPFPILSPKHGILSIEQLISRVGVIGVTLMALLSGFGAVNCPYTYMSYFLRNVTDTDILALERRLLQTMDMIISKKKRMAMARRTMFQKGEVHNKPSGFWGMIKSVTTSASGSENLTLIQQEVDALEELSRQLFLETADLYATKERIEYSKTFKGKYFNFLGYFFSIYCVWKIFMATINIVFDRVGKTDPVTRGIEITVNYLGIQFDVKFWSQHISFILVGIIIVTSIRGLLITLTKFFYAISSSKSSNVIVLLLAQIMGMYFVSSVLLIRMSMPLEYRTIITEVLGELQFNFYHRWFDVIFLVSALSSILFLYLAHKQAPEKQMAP
UniProt O76003: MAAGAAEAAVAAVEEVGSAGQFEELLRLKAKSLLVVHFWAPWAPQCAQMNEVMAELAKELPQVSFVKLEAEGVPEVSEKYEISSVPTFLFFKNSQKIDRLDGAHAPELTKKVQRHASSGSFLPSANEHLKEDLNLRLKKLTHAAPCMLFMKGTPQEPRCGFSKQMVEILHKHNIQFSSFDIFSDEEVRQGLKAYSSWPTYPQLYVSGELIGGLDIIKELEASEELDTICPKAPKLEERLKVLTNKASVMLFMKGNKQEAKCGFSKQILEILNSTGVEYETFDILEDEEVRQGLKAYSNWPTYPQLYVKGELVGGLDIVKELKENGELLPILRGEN
UniProt Q49A26: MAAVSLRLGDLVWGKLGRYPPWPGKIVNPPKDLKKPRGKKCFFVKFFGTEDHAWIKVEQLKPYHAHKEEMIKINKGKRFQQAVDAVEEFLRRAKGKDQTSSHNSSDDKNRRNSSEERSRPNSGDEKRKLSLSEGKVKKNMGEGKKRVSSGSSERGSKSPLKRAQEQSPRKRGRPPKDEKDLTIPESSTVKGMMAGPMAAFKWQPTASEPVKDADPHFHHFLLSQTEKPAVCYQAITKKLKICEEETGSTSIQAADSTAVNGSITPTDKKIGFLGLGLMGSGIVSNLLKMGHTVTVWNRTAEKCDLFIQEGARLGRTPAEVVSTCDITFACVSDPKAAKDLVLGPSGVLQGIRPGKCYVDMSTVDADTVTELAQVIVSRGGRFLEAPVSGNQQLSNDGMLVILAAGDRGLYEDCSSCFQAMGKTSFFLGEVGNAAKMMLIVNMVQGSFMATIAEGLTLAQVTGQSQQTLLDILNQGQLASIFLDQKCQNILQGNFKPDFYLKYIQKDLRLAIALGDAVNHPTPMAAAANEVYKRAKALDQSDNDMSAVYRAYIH
UniProt O60547: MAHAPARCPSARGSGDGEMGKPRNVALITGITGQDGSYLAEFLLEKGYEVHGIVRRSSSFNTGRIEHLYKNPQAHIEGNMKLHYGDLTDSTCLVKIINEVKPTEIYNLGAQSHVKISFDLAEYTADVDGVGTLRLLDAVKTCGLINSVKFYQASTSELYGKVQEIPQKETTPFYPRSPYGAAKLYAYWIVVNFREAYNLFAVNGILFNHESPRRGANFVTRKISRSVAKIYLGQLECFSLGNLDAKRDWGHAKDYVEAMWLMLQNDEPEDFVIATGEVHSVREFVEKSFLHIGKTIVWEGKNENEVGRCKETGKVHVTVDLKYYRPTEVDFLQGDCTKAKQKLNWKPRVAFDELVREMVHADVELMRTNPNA
UniProt Q8TBA6: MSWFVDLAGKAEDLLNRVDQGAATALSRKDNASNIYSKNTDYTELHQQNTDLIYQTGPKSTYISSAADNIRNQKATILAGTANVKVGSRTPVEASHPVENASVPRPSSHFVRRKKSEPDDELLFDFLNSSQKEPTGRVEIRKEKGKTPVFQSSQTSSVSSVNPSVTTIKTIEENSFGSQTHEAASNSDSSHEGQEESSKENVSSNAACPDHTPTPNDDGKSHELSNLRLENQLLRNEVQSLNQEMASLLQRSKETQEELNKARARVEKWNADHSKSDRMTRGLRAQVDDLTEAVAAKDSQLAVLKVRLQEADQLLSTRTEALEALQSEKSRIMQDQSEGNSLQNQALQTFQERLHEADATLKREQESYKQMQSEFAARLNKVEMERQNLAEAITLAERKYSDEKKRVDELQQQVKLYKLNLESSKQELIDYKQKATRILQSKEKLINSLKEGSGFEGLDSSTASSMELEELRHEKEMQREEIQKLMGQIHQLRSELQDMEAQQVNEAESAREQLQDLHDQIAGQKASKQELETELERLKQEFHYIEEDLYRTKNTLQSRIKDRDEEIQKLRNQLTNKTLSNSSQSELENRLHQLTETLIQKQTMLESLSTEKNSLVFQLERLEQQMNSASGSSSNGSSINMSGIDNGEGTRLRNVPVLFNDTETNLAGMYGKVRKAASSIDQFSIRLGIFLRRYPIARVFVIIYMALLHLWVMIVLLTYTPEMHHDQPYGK
UniProt P17174: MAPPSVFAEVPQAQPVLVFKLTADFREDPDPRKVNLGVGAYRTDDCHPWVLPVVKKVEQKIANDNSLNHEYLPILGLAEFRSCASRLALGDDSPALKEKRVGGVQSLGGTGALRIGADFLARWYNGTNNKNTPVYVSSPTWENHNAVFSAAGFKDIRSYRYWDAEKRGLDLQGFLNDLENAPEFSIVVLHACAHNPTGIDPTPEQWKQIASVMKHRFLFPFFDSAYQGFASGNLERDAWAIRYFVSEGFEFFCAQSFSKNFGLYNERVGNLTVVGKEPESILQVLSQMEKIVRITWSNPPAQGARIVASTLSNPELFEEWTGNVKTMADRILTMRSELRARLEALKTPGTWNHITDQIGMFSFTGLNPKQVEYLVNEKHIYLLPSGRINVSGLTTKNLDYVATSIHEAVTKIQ
UniProt O60234, whole entry, looked up: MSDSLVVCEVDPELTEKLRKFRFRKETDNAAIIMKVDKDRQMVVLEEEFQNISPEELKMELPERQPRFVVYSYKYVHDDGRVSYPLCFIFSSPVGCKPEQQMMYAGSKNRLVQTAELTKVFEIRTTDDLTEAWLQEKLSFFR
UniProt P29992, whole entry, looked up: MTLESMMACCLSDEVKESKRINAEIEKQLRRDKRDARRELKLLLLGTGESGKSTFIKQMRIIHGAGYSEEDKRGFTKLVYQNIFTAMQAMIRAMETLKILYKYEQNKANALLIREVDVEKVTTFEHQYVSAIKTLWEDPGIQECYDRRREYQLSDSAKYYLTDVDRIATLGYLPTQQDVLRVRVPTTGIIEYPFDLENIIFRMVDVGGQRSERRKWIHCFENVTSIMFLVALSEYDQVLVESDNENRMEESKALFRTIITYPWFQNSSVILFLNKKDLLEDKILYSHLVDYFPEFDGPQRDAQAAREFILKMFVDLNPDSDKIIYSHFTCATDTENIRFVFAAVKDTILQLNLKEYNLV
UniProt P36915, whole entry, looked up: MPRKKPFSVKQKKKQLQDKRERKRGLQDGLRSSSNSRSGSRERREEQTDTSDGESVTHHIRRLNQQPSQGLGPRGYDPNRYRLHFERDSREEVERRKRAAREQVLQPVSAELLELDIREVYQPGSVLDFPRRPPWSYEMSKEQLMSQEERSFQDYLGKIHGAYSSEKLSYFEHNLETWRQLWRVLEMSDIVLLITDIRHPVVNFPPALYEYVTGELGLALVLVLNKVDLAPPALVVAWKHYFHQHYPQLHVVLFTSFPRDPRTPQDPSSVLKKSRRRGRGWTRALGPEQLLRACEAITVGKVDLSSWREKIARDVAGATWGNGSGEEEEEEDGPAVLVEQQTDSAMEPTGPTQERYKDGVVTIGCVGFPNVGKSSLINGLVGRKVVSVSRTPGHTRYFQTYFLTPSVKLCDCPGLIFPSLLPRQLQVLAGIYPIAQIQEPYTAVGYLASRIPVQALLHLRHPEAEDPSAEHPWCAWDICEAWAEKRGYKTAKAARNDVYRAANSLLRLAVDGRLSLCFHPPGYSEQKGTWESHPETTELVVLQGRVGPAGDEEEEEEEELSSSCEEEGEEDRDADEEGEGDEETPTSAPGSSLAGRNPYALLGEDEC
UniProt Q9P2T1: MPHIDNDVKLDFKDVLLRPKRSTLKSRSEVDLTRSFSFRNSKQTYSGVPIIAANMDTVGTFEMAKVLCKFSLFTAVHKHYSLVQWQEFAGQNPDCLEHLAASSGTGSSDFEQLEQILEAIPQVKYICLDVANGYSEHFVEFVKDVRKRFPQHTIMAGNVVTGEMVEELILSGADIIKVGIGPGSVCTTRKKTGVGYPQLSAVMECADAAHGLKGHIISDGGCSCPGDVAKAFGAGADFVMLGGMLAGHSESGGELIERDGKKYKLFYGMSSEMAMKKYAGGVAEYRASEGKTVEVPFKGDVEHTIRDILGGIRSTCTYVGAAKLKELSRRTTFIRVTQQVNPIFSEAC

Legend:
Experiment in all cases: log2 fold change, soluble protein after heating vs DMSO (PISA); higher = thermal stabilisation; K562 cells, 10 uM, 30 min; active = over 0.2 and 3.5 SD of the protein, either way, in both replicates (recomputed)
[1] = compound: Cc1ccc(NC(=O)c2ccc(CN3CC[C@H](N(C)C)C3)c(C(F)(F)F)c2)cc1Nc1nccc(-c2cncnc2)n1 [bafetinib]
Summary of the method: (§1)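 K562 cells at 2×10^6 cells/mL were given 10 μM compound for 30 min. Aliquots then went through 3 min of heating across 48°C-58°C, were pooled, and were extracted in PBS with 0.5% NP-40 at 4°C, and the supernatant after 21,000xg for 90 min was quantified by TMTpro 16plex LC-MS/MS with channel sums equalised. Thermal stability relative to control samples, from duplicates, is given as log2 fold change.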

[2] = compound: Cc1cccc(CC(=O)N2CCc3c2ccc(-c2cn(C)c4ncnc(N)c24)c3F)n1
Summary of the method: as §1

[3] = compound: Cc1cn(-c2cc(NC(=O)c3ccc(C)c(Nc4nccc(-c5cccnc5)n4)c3)cc(C(F)(F)F)c2)cn1 [nilotinib]
Summary of the method: as §1

[4] = compound: Cc1nc(Nc2n[nH]c3c2CN(C(=O)N[C@H](CN(C)C)c2ccccc2)C3(C)C)c2sccc2n1
Summary of the method: as §1

[5] = compound: Cc1nc(Nc2ncc(C(=O)Nc3c(C)cccc3Cl)s2)cc(N2CCN(CCO)CC2)n1 [dasatinib]
Summary of the method: as §1

[6] = compound: Cc1ncc(-c2ccnc(Nc3ccc(S(C)(=O)=O)cc3)n2)n1C(C)C
Summary of the method: as §1

[7] = compound: Cn1cc(-c2ccc3c(c2)CCN3C(=O)Cc2cccc(C(F)(F)F)c2)c2c(N)ncnc21
Summary of the method: as §1

[8] = compound: Cn1cc(-c2ccc3nnc(C(F)(F)c4ccc5ncccc5c4)n3n2)cn1
Summary of the method: as §1

[9] = compound: Cn1cncc1[C@@](N)(c1ccc(Cl)cc1)c1ccc2c(c1)c(-c1cccc(Cl)c1)cc(=O)n2C [tipifarnib]
Summary of the method: as §1

[10] = compound: FC(F)(F)c1ccc(/C=C/c2nc(COc3ccc(CCCCn4ccnn4)cc3)co2)cc1 [mubritinib]
Summary of the method: as §1

| Target | log2 fold change [1] | log2 fold change [2] | log2 fold change [3] | log2 fold change [4] | log2 fold change [5] | log2 fold change [6] | log2 fold change [7] | log2 fold change [8] | log2 fold change [9] | log2 fold change [10] |
| --- | --- | --- | --- | --- | --- | --- | --- | --- | --- | --- |
| GRN (UniProt P28799) | inactive: 0.253 | inactive: 0.021 | inactive: 0.161 | inactive: -0.079 | inactive: 0.136 | inactive: -0.04 | inactive: 0.003 | inactive: -0.064 | inactive: 0.02 | inactive: 0.056 |
| GLUD1 (UniProt P00367) | inactive: 0.25 | inactive: 0.012 | active: 0.382 | active: 0.266 | inactive: 0.056 | inactive: -0.015 | inactive: 0.173 | inactive: 0.04 | inactive: 0.068 | inactive: 0.046 |
| GPX4 (UniProt P36969) | inactive: 0.003 | inactive: 0.023 | inactive: 0.036 | inactive: -0.031 | inactive: 0.015 | inactive: 0.019 | inactive: 0.05 | inactive: 0.003 | inactive: -0.046 | inactive: 0.033 |
| GOSR1 (UniProt O95249) | inactive: -0.073 | inactive: 0.024 | inactive: 0.016 | inactive: -0.012 | inactive: 0.034 | inactive: -0.001 | inactive: 0.012 | inactive: 0.038 | inactive: 0.006 | inactive: 0.022 |
| GNS (UniProt P15586) | inactive: -0.156 | inactive: -0.002 | inactive: 0.003 | inactive: 0.037 | inactive: 0.006 | inactive: -0.033 | inactive: 0.008 | inactive: -0.028 | inactive: 0.02 | inactive: -0.004 |
| GPR89A (UniProt B7ZAQ6) | inactive: -0.047 | inactive: -0.092 | inactive: -0.007 | inactive: 0.036 | inactive: -0.013 | inactive: 0 | inactive: 0.044 | inactive: 0.04 | inactive: -0.041 | inactive: 0 |
| GLRX3 (UniProt O76003) | inactive: -0.04 | inactive: 0.025 | inactive: -0.048 | inactive: -0.022 | inactive: -0.054 | inactive: 0.015 | inactive: -0.015 | inactive: -0.014 | inactive: -0.082 | inactive: -0.004 |
| GLYR1 (UniProt Q49A26) | inactive: 0.109 | inactive: -0.015 | inactive: 0.082 | inactive: 0.068 | inactive: 0.067 | inactive: -0.004 | inactive: -0.004 | inactive: -0.01 | inactive: 0.054 | inactive: 0.024 |
| GMDS (UniProt O60547) | inactive: -0.043 | inactive: -0.025 | inactive: -0.014 | inactive: 0.032 | inactive: 0.021 | inactive: -0.013 | inactive: 0.056 | inactive: 0.012 | inactive: -0.019 | inactive: 0.018 |
| GOLGA5 (UniProt Q8TBA6) | inactive: -0.074 | inactive: 0.004 | inactive: 0.069 | inactive: -0.045 | inactive: 0.038 | inactive: -0.005 | inactive: -0.004 | inactive: -0.01 | inactive: 0.006 | inactive: 0.015 |
| GOT1 (UniProt P17174) | inactive: -0.02 | inactive: -0.031 | inactive: -0.004 | inactive: 0.016 | inactive: 0.031 | inactive: -0.009 | inactive: 0.013 | inactive: -0.006 | inactive: -0.021 | inactive: 0.028 |
| GMFG (UniProt O60234) | inactive: 0.016 | inactive: 0.052 | inactive: 0.036 | inactive: -0.052 | inactive: -0.074 | inactive: -0.013 | inactive: -0.015 | inactive: -0.058 | inactive: -0.041 | inactive: 0.057 |
| GNA11 (UniProt P29992) | inactive: 0.05 | inactive: -0.001 | inactive: 0.045 | inactive: -0.073 | inactive: -0.013 | inactive: 0.028 | inactive: 0.039 | inactive: -0.001 | inactive: 0.009 | inactive: 0.001 |
| GNL1 (UniProt P36915) | inactive: -0.02 | inactive: 0.019 | inactive: -0.024 | inactive: 0.05 | inactive: -0.084 | inactive: 0.054 | inactive: 0.047 | inactive: -0.03 | inactive: -0.152 | inactive: 0.009 |
| GMPR2 isoform 2 (UniProt Q9P2T1) | inactive: -0.025 | inactive: 0.007 | inactive: -0.016 | inactive: -0.001 | inactive: 0.016 | inactive: -0.017 | inactive: 0.011 | inactive: -0.005 | inactive: -0.039 | inactive: 0.029 |

Two entries picked at random from the list so far, as already listed:

| Target | log2 fold change [1] | log2 fold change [2] | log2 fold change [3] | log2 fold change [4] | log2 fold change [5] | log2 fold change [6] | log2 fold change [7] | log2 fold change [8] | log2 fold change [9] | log2 fold change [10] |
| --- | --- | --- | --- | --- | --- | --- | --- | --- | --- | --- |
| GMFG (UniProt O60234) | inactive: 0.016 | inactive: 0.052 | inactive: 0.036 | inactive: -0.052 | inactive: -0.074 | inactive: -0.013 | inactive: -0.015 | inactive: -0.058 | inactive: -0.041 | inactive: 0.057 |
| GMDS (UniProt O60547) | inactive: -0.043 | inactive: -0.025 | inactive: -0.014 | inactive: 0.032 | inactive: 0.021 | inactive: -0.013 | inactive: 0.056 | inactive: 0.012 | inactive: -0.019 | inactive: 0.018 |
